The supplement of paper PMC7661543
± gives the standard deviation of the averaged measurements. Differences between knockout arms are mostly noise.

Tested on: BT-20
Test: relative cell number vs DMSO control (72 h) (% of DMSO); higher = less growth inhibition (more cells)
Procedure: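 QMAP-Seq: a pool of 5 breast cancer cell lines (ZR-75-1, SKBR3, HCC-38, MDA-MB-231, BT-20), each carrying 12 doxycycline-inducible Cas9 sgRNA perturbations (11 knockouts plus non-targeting sgNT), was treated with compounds for 72 h at four 10-fold doses (10 nM-10 uM or 1 nM-1 uM range). Barcodes were amplified and sequenced, and cell number was interpolated from 293T spike-in standard curves. The result is expressed as % of the median of DMSO wells. Two biological replicates.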

O=C1CCC(N2C(=O)c3ccccc3C2=O)C(=O)N1 (configuration not stated) [Thalidomide]
Details	relative cell number
sgRNA knockout: sgATF3, 10 nM	104 ± 3.9
sgRNA knockout: sgATF3, 100 nM	90.9 ± 11
sgRNA knockout: sgATF3, 1000 nM	105 ± 9.6
sgRNA knockout: sgATF3, 10000 nM	107 ± 10
sgRNA knockout: sgATF4, 10 nM	121 ± 13
sgRNA knockout: sgATF4, 100 nM	81.2 ± 9.3
sgRNA knockout: sgATF4, 1000 nM	116 ± 15
sgRNA knockout: sgATF4, 10000 nM	123 ± 26
sgRNA knockout: sgATF6, 10 nM	89.1 ± 4.5
sgRNA knockout: sgATF6, 100 nM	84.1 ± 4
sgRNA knockout: sgATF6, 1000 nM	120 ± 5.2
sgRNA knockout: sgATF6, 10000 nM	115 ± 25
sgRNA knockout: sgATG7, 10 nM	96.4 ± 12
sgRNA knockout: sgATG7, 100 nM	82.1 ± 8.9
sgRNA knockout: sgATG7, 1000 nM	108 ± 3.7
sgRNA knockout: sgATG7, 10000 nM	115 ± 12
sgRNA knockout: sgERN1, 10 nM	95.8 ± 1.1
sgRNA knockout: sgERN1, 100 nM	89 ± 5.5
sgRNA knockout: sgERN1, 1000 nM	101 ± 8.7
sgRNA knockout: sgERN1, 10000 nM	112 ± 25
sgRNA knockout: sgHSF1, 10 nM	104 ± 2.1
sgRNA knockout: sgHSF1, 100 nM	82.4 ± 1.6
sgRNA knockout: sgHSF1, 1000 nM	106 ± 1.5
sgRNA knockout: sgHSF1, 10000 nM	124 ± 29
sgRNA knockout: sgHSF2, 10 nM	107 ± 2.5
sgRNA knockout: sgHSF2, 100 nM	81.5 ± 7.8
sgRNA knockout: sgHSF2, 1000 nM	95.6 ± 21
sgRNA knockout: sgHSF2, 10000 nM	113 ± 20
sgRNA knockout: sgKEAP1, 10 nM	97.1 ± 12
sgRNA knockout: sgKEAP1, 100 nM	85.1 ± 5.5
sgRNA knockout: sgKEAP1, 1000 nM	101 ± 8.1
sgRNA knockout: sgKEAP1, 10000 nM	105 ± 7.7
sgRNA knockout: sgNFE2L2, 10 nM	120 ± 4.7
sgRNA knockout: sgNFE2L2, 100 nM	93.9 ± 11
sgRNA knockout: sgNFE2L2, 1000 nM	129 ± 20
sgRNA knockout: sgNFE2L2, 10000 nM	152 ± 11
sgRNA knockout: sgSLC35F2, 10 nM	101 ± 8.8
sgRNA knockout: sgSLC35F2, 100 nM	80 ± 1.3
sgRNA knockout: sgSLC35F2, 1000 nM	114 ± 27
sgRNA knockout: sgSLC35F2, 10000 nM	122 ± 33
sgRNA knockout: sgXBP1, 10 nM	111 ± 7.5
sgRNA knockout: sgXBP1, 100 nM	95.3 ± 11
sgRNA knockout: sgXBP1, 1000 nM	116 ± 5.7
sgRNA knockout: sgXBP1, 10000 nM	121 ± 19

CN(C)c1cc(NC(=O)CNC(C)(C)C)c(O)c2c1C[C@H]1C[C@H]3[C@H](N(C)C)C(O)=C(C(N)=O)C(=O)[C@@]3(O)C(O)=C1C2=O [Tigecycline]
Details	relative cell number
sgRNA knockout: sgATF3, 10 nM	94.3 ± 14
sgRNA knockout: sgATF3, 100 nM	111 ± 15
sgRNA knockout: sgATF3, 1000 nM	93.1 ± 17
sgRNA knockout: sgATF3, 10000 nM	107 ± 8.4
sgRNA knockout: sgATF4, 10 nM	95.2 ± 18
sgRNA knockout: sgATF4, 100 nM	105 ± 24
sgRNA knockout: sgATF4, 1000 nM	109 ± 26
sgRNA knockout: sgATF4, 10000 nM	95.7 ± 5.2
sgRNA knockout: sgATF6, 10 nM	104 ± 3.7
sgRNA knockout: sgATF6, 100 nM	115.5 ± 0.61
sgRNA knockout: sgATF6, 1000 nM	92.8 ± 18
sgRNA knockout: sgATF6, 10000 nM	114 ± 20
sgRNA knockout: sgATG7, 10 nM	96.2 ± 6.1
sgRNA knockout: sgATG7, 100 nM	105 ± 14
sgRNA knockout: sgATG7, 1000 nM	98.7 ± 5.2
sgRNA knockout: sgATG7, 10000 nM	105 ± 15
sgRNA knockout: sgERN1, 10 nM	97.5 ± 5.1
sgRNA knockout: sgERN1, 100 nM	97.2 ± 5.7
sgRNA knockout: sgERN1, 1000 nM	103 ± 5.1
sgRNA knockout: sgERN1, 10000 nM	91.7 ± 20
sgRNA knockout: sgHSF1, 10 nM	105 ± 2.9
sgRNA knockout: sgHSF1, 100 nM	91.3 ± 1.2
sgRNA knockout: sgHSF1, 1000 nM	106 ± 13
sgRNA knockout: sgHSF1, 10000 nM	99.7 ± 13
sgRNA knockout: sgHSF2, 10 nM	94.9 ± 27
sgRNA knockout: sgHSF2, 100 nM	75.7 ± 2.9
sgRNA knockout: sgHSF2, 1000 nM	102 ± 10
sgRNA knockout: sgHSF2, 10000 nM	95.8 ± 7.5
sgRNA knockout: sgKEAP1, 10 nM	99.8 ± 2.7
sgRNA knockout: sgKEAP1, 100 nM	94.1 ± 23
sgRNA knockout: sgKEAP1, 1000 nM	93.1 ± 3.6
sgRNA knockout: sgKEAP1, 10000 nM	109 ± 4.1
sgRNA knockout: sgNFE2L2, 10 nM	106 ± 5.3
sgRNA knockout: sgNFE2L2, 100 nM	84.5 ± 12
sgRNA knockout: sgNFE2L2, 1000 nM	100 ± 9
sgRNA knockout: sgNFE2L2, 10000 nM	100 ± 11
sgRNA knockout: sgSLC35F2, 10 nM	91.5 ± 10
sgRNA knockout: sgSLC35F2, 100 nM	89.3 ± 23
sgRNA knockout: sgSLC35F2, 1000 nM	109.8 ± 0.93
sgRNA knockout: sgSLC35F2, 10000 nM	117.3 ± 0.3
sgRNA knockout: sgXBP1, 10 nM	93 ± 8.3
sgRNA knockout: sgXBP1, 100 nM	106 ± 19
sgRNA knockout: sgXBP1, 1000 nM	111 ± 3.1
sgRNA knockout: sgXBP1, 10000 nM	114 ± 14

CC[C@@]1(O)C(=O)OCc2c1cc1n(c2=O)Cc2cc3c(CN(C)C)c(O)ccc3nc2-1 [Topotecan]
Details	relative cell number
sgRNA knockout: sgATF3, 10 nM	63.8 ± 3.7
sgRNA knockout: sgATF3, 100 nM	60.6 ± 1.6
sgRNA knockout: sgATF3, 1000 nM	24.4 ± 5
sgRNA knockout: sgATF3, 10000 nM	11.4 ± 1.8
sgRNA knockout: sgATF4, 10 nM	84 ± 13
sgRNA knockout: sgATF4, 100 nM	57.2 ± 5.2
sgRNA knockout: sgATF4, 1000 nM	26.7 ± 5.2
sgRNA knockout: sgATF4, 10000 nM	14.5 ± 1
sgRNA knockout: sgATF6, 10 nM	87.4 ± 11
sgRNA knockout: sgATF6, 100 nM	61.5 ± 5.3
sgRNA knockout: sgATF6, 1000 nM	28.1 ± 9.8
sgRNA knockout: sgATF6, 10000 nM	8.74 ± 1.1
sgRNA knockout: sgATG7, 10 nM	93.4 ± 4.5
sgRNA knockout: sgATG7, 100 nM	55.5 ± 2.9
sgRNA knockout: sgATG7, 1000 nM	25.7 ± 3.3
sgRNA knockout: sgATG7, 10000 nM	13 ± 3.4
sgRNA knockout: sgERN1, 10 nM	80.8 ± 12
sgRNA knockout: sgERN1, 100 nM	52.8 ± 2.3
sgRNA knockout: sgERN1, 1000 nM	23.6 ± 4.2
sgRNA knockout: sgERN1, 10000 nM	14.3 ± 5.5
sgRNA knockout: sgHSF1, 10 nM	84.4 ± 2.3
sgRNA knockout: sgHSF1, 100 nM	60 ± 1.2
sgRNA knockout: sgHSF1, 1000 nM	28.4 ± 6.2
sgRNA knockout: sgHSF1, 10000 nM	11.9 ± 1.8
sgRNA knockout: sgHSF2, 10 nM	87.2 ± 13
sgRNA knockout: sgHSF2, 100 nM	53.7 ± 9.3
sgRNA knockout: sgHSF2, 1000 nM	36.8 ± 17
sgRNA knockout: sgHSF2, 10000 nM	12.3 ± 0.8
sgRNA knockout: sgKEAP1, 10 nM	89 ± 1.3
sgRNA knockout: sgKEAP1, 100 nM	50.8 ± 1.5
sgRNA knockout: sgKEAP1, 1000 nM	29.6 ± 4.8
sgRNA knockout: sgKEAP1, 10000 nM	10.8 ± 0.86
sgRNA knockout: sgNFE2L2, 10 nM	69.3 ± 12
sgRNA knockout: sgNFE2L2, 100 nM	64.2 ± 1.8
sgRNA knockout: sgNFE2L2, 1000 nM	27.7 ± 4.9
sgRNA knockout: sgNFE2L2, 10000 nM	14.6 ± 7.7
sgRNA knockout: sgSLC35F2, 10 nM	88.9 ± 1.7
sgRNA knockout: sgSLC35F2, 100 nM	53.3 ± 1.5
sgRNA knockout: sgSLC35F2, 1000 nM	24.1 ± 7
sgRNA knockout: sgSLC35F2, 10000 nM	15.7 ± 0.29
sgRNA knockout: sgXBP1, 10 nM	85.2 ± 9.2
sgRNA knockout: sgXBP1, 100 nM	50.6 ± 9.3
sgRNA knockout: sgXBP1, 1000 nM	27.5 ± 8.3
sgRNA knockout: sgXBP1, 10000 nM	13.6 ± 3.3
